The values that follow come from PMC4489591.

For at least one entry, the source does not settle the construct or the ends of the probe.

The data set concerns SrpR-6xHis. The data set can be described thus: EMSA. To be noted: salmon sperm DNA strongly decreased binding, not completely; recombinant protein; protein details: C-terminal 6xHis; label: unlabelled, SYBR Green stain. On the technique in general: A gel shift assay detects complexes by their altered migration in electrophoresis.

For the sequence “TGGCCACGCTTGGGCATTTCCAAGTGCTCTGGCGGTTCAC (double strand) [R1-R3 (R3-R1)]”, the binding result is recorded as “binds”. Under “TACTTATCTCCTGTGCACTCAAAGTGCTCTAACGGTTTTC (double strand) [R2-R4 (R4-R2)]” stands “binds”.
